Laboratory results as given in the supplement of paper PMC11732987, “Enantioselective OTUD7B fragment discovery through chemoproteomics screening and high-throughput optimisation” (Communications Chemistry, 2025).
The list shows a part of the results. The data scatter; read single values as rough.

By UniProt entry, the sequences of proteins in these tests, tags left out. Where a name states a change or a piece, a line headed by the entry shows the natural chain unless it says otherwise. Residues count along the entry.
UniProt P49792, whole entry, looked up: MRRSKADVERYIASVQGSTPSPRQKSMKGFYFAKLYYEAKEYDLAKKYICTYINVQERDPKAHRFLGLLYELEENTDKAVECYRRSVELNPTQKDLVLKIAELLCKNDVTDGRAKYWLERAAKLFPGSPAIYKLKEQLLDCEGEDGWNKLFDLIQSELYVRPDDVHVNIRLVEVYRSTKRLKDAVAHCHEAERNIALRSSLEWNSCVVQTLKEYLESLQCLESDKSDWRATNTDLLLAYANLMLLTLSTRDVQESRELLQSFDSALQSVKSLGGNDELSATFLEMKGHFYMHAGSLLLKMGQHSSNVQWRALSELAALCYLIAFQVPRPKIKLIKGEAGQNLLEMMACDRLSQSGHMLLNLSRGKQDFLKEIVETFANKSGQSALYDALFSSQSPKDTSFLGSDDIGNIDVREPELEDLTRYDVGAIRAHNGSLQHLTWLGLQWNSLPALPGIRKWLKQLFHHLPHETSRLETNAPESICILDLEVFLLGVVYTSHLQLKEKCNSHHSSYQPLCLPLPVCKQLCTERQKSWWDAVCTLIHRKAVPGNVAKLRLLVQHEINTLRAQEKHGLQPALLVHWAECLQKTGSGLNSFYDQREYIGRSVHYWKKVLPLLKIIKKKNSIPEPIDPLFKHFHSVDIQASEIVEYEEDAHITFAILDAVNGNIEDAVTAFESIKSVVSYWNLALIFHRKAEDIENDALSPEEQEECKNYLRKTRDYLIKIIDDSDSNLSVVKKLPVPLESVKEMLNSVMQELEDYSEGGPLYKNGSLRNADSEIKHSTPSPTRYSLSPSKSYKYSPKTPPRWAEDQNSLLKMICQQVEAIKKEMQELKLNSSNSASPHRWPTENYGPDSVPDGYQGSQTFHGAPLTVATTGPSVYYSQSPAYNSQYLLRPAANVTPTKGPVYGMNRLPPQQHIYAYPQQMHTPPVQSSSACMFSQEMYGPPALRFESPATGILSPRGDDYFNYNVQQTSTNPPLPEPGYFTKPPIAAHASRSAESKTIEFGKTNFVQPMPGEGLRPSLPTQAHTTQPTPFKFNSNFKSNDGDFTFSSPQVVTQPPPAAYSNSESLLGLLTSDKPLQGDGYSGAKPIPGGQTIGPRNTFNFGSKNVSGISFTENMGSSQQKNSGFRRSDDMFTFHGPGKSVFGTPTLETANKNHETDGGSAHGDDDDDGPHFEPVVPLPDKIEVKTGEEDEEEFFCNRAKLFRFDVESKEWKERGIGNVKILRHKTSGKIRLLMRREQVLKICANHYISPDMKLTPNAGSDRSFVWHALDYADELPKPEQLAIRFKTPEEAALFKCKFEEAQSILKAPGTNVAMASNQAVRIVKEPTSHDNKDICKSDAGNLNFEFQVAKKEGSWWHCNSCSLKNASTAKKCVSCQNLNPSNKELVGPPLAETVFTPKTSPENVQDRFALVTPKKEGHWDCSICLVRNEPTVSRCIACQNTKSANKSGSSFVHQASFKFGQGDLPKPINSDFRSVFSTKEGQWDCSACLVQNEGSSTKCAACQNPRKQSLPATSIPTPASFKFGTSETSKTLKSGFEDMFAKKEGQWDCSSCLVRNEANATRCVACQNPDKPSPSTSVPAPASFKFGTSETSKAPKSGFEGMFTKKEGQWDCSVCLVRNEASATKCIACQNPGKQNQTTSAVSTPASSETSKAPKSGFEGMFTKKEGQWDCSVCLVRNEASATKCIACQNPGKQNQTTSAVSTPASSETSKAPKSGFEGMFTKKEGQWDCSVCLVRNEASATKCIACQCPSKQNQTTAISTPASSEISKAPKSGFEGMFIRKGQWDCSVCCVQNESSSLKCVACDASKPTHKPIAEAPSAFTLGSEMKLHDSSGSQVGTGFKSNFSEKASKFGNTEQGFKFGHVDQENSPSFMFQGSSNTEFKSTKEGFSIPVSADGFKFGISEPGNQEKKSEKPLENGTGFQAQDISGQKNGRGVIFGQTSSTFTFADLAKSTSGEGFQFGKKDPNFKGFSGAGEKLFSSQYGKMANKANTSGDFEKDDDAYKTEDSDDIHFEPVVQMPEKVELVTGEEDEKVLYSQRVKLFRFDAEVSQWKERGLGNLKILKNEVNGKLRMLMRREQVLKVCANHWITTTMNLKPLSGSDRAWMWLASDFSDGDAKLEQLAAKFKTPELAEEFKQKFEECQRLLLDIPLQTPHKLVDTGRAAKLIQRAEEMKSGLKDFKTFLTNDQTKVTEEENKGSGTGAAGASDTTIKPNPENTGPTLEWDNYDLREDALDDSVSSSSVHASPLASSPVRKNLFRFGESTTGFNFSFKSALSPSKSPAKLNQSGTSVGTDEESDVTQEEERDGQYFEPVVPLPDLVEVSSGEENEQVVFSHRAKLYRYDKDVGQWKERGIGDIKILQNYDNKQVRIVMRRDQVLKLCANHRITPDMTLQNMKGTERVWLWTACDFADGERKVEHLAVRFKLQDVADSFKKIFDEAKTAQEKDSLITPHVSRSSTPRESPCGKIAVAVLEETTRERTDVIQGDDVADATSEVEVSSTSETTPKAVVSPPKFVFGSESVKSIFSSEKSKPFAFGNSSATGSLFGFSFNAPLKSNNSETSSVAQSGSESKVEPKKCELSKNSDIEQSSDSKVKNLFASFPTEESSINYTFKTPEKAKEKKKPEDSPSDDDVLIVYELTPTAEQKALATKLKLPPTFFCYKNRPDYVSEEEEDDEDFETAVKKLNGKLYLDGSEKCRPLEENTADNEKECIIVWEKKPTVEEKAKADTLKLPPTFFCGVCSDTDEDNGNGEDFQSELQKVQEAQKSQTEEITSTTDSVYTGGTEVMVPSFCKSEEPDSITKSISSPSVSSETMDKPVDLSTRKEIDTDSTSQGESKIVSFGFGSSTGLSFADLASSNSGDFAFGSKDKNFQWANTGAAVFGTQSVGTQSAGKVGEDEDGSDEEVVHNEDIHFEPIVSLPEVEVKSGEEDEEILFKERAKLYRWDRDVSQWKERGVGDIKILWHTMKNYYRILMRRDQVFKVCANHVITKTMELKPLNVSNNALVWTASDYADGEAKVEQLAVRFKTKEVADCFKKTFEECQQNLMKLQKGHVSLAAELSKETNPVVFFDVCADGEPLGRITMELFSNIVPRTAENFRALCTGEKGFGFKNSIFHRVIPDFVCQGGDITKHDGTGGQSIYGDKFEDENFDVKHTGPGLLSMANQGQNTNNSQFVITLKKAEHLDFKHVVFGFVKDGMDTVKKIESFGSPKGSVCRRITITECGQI
UniProt P49792, 2766-2792: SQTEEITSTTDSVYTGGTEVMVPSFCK
UniProt O60518, 784-806: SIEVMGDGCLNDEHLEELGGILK
UniProt P20936: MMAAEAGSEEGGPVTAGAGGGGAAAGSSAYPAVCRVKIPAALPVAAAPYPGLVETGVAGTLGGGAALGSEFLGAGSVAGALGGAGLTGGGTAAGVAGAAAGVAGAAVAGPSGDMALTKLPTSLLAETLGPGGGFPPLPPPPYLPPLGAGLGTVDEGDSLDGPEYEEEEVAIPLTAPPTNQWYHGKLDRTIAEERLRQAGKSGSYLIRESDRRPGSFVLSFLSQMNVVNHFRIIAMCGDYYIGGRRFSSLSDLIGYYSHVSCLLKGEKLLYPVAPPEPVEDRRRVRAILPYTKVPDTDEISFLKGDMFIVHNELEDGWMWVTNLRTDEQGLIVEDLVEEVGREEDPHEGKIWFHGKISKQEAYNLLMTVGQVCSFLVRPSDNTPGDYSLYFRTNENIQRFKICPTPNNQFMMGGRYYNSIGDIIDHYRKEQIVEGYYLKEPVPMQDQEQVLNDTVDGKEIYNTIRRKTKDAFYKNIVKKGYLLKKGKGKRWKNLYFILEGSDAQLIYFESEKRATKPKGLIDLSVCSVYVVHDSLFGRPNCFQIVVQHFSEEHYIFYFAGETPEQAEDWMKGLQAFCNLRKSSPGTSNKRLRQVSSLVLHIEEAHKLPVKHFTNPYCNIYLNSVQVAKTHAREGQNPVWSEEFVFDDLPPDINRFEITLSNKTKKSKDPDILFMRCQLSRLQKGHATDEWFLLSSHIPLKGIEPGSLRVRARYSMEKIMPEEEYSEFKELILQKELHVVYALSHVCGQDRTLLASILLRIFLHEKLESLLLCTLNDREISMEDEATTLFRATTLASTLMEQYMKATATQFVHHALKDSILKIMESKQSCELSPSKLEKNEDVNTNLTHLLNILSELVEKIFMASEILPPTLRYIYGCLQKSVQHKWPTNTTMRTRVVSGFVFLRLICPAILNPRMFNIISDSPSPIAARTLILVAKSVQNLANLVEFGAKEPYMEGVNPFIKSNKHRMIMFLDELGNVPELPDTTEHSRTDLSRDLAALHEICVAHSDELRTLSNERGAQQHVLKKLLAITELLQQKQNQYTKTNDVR
UniProt Q8TEU7, 1393-1415: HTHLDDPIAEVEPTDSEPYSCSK
UniProt Q9Y3P4: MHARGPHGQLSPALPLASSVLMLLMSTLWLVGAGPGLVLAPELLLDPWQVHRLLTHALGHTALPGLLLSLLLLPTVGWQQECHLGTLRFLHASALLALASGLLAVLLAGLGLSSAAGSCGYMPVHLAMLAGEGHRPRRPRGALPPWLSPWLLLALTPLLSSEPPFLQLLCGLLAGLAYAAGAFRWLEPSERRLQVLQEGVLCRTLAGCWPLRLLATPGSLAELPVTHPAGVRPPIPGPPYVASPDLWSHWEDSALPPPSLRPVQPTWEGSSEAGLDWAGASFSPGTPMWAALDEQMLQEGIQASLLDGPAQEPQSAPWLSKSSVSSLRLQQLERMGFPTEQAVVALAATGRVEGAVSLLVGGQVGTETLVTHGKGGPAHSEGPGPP
UniProt Q96DM3: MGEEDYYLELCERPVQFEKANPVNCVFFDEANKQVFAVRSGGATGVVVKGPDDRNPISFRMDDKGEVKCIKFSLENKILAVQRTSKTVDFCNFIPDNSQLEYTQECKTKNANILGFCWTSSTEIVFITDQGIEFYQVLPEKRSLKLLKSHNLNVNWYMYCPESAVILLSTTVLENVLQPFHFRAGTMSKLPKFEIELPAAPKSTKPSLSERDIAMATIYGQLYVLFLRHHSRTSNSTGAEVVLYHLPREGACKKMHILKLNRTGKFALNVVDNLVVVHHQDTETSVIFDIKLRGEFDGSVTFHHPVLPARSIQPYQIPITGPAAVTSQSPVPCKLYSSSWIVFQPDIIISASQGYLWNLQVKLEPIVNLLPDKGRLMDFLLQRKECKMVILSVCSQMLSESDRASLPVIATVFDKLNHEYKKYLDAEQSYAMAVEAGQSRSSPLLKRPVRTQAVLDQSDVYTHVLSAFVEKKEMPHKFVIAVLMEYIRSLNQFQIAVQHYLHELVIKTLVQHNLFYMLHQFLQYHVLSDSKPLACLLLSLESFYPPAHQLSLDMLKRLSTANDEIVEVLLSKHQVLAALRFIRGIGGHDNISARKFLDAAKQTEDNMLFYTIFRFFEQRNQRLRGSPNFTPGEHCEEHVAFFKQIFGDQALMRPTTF
UniProt Q9H2T7: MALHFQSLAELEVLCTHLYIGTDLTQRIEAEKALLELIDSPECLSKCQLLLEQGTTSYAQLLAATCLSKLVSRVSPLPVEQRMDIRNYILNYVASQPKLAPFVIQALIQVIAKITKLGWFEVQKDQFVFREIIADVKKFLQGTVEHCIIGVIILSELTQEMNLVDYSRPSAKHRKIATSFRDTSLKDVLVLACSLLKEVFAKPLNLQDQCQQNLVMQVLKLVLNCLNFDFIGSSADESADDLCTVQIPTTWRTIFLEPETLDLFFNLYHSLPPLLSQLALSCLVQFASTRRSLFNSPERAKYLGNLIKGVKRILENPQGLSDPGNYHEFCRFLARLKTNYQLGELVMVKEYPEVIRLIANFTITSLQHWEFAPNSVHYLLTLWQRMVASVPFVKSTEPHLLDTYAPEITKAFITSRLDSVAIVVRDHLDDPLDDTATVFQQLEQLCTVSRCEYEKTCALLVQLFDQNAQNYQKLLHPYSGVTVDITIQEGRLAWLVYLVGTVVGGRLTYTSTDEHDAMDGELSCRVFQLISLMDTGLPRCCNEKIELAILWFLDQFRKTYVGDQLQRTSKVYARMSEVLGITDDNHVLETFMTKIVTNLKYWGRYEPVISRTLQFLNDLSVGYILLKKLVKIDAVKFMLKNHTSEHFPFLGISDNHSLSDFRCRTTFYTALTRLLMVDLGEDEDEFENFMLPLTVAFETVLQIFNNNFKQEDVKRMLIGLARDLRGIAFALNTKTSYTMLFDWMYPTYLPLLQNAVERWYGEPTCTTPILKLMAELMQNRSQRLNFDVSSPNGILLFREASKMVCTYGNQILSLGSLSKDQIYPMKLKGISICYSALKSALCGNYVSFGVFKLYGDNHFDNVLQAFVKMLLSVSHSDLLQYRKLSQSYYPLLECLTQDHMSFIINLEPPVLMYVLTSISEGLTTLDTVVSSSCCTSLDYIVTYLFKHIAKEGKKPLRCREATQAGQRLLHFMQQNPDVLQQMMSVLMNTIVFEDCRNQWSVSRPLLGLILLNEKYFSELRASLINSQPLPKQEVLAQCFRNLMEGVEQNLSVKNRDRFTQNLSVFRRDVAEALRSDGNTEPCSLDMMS

compound: ClCC(=O)N[C@@H]1CCCc2ccccc12; assay: log2 mean competition ratio of IA-DTB cysteine labelling (DMSO/compound) (log2 ratio); higher = stronger cysteine engagement by compound; conditions: 50 µM; treatment time: 4 h; cell line lysate: HEK293T
Procedure: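 IA-DTB competitive cysteine chemoproteomics in HEK293T RIPA lysate. Lysates were treated with compound 29 or 30 at 50 or 200 µM for 4 h, then IA-DTB (500 µM, 1 h), trypsin-digested, NeutrAvidin-enriched and analysed by diaPASEF. Competition ratio = intensity DMSO / intensity compound (n=4 treated, n=64 DMSO); binding: mean log2 CR ≥ 1 and p ≤ 0.05 plus QC filters. Target is the cysteine site.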

| Target | log2 mean competition ratio |
| --- | --- |
| RICTOR C68 (UniProt Q6R327) | -0.166 |
| RANBP2 C3032 (UniProt P49792) | -0.154 |
| RAF1 C81 (UniProt P04049) | 0.629 |
| RICTOR C218 (UniProt Q6R327) | 0.0502 |
| RANBP6 C792 (UniProt O60518) | 0.0604 |
| RANGAP1 C152 (UniProt P46060) | -0.0763 |
| RFC4 C48 (UniProt P35249) | -0.135 |
| RC3H1 C1049 (UniProt Q5TC82) | -0.266 |
| RANBP6 C1065 (UniProt O60518) | -0.296 |
| RFC1 C607 (UniProt P35251) | 0.173 |
| RMND5A C4 (UniProt Q9H871) | -0.165 |
| RIPOR1 C1016 (UniProt Q6ZS17) | -0.58 |
| RASA1 C576 (UniProt P20936) | 0.302 |
| RANBP6 C952 (UniProt O60518) | -0.0963 |
| RBBP8 C567 (UniProt Q99708) | 0.531 |
| RAPGEF6 C1413 (UniProt Q8TEU7) | 0.0656 |
| RAP1GDS1 C350 (UniProt P52306) | -0.0884 |
| RHBDD3 C202 (UniProt Q9Y3P4) | -0.00671 |
| RBPJ C180 (UniProt Q06330) | -0.0597 |

| Target | log2 mean competition ratio |
| --- | --- |
| RANBP10 C501 (UniProt Q6VN20) | 0.653 |
| RMC1 C11 (UniProt Q96DM3) | -0.0285 |
| RANBP2 C348 (UniProt P49792) | 0.0506 |
| RB1CC1 C1236 (UniProt Q8TDY2) | 0.298 |
| RBM20 C1024 (UniProt Q5T481) | 0.192 |
| RECQL4 C749 (UniProt O94761) | 0.199 |
| RANBP2 C2791 (UniProt P49792) | -0.395 |
| RASAL2 C360 (UniProt Q9UJF2) | -0.0797 |
| RAP1GAP C83 (UniProt P47736) | -0.0364 |
| RHBDD3 C208 (UniProt Q9Y3P4) | 0.000933 |
| RNASEH1 C46 (UniProt O60930) | 0.0423 |
| RANBP17 C765 (UniProt Q9H2T7) | 0.0378 |
| RASA2 C405 (UniProt Q15283) | -0.0323 |
| RFX5 C107 (UniProt P48382) | -0.145 |
| RBM41 C136 (UniProt Q96IZ5) | 0.133 |
| RBL1 C1047 (UniProt P28749) | -0.0397 |
| RBM20 C24 (UniProt Q5T481) | 0.038 |
| RANBP9 C610 (UniProt Q96S59) | -0.018 |

2 entries picked at random from the list so far, as already listed:

| Target | log2 mean competition ratio |
| --- | --- |
| RHBDD3 C202 (UniProt Q9Y3P4) | -0.00671 |
| RANBP9 C610 (UniProt Q96S59) | -0.018 |
